Experimental data published in the supplement of paper PMC8728848.
The list shows a part of the results.

Assays:
Assay in all cases: glycan array binding signal (z-score within array); higher = stronger binding
Conditions in all cases: glycan notation: IUPAC condensed, linker removed
[1] = target: GlcNAc(b1-3)Gal(b1-4)GlcNAc(b1-3)Gal(b1-4)GlcNAc(b1-2)Man(a1-3)[GlcNAc(b1-3)Gal(b1-4)GlcNAc(b1-3)Gal(b1-4)GlcNAc(b1-2)Man(a1-6)]Man(b1-4)GlcNAc(b1-4)[Fuc(a1-6)]GlcNAc
How it was run: (§1)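 The binding signal is a Z-score computed within each array and averaged over linkers. Arrays of the same protein sequence at different concentrations or buffers were also averaged together. Data originate from 3228 arrays in the Consortium for Functional Glycomics database, kept only where the protein sequence was available.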

[2] = target: GlcNAc(b1-3)Gal(b1-4)GlcNAc(b1-3)Gal(b1-4)GlcNAc(b1-2)[GlcNAc(b1-3)Gal(b1-4)GlcNAc(b1-3)Gal(b1-4)GlcNAc(b1-6)]Man(a1-6)[GlcNAc(b1-3)Gal(b1-4)GlcNAc(b1-3)Gal(b1-4)GlcNAc(b1-2)Man(a1-3)]Man(b1-4)GlcNAc(b1-4)[Fuc(a1-6)]GlcNAc
How it was run: as §1

[3] = target: GlcNAc(b1-3)Gal(b1-4)GlcNAc(b1-3)Gal(b1-4)GlcNAc(b1-3)Gal(b1-4)GlcNAc(b1-2)Man(a1-3)[GlcNAc(b1-3)Gal(b1-4)GlcNAc(b1-3)Gal(b1-4)GlcNAc(b1-3)Gal(b1-4)GlcNAc(b1-2)Man(a1-6)]Man(b1-4)GlcNAc(b1-4)GlcNAc
How it was run: as §1

[4] = target: GlcNAc(b1-3)Gal(b1-4)GlcNAc(b1-3)Gal(b1-4)GlcNAc(b1-3)Gal(b1-4)GlcNAc(b1-2)Man(a1-3)[GlcNAc(b1-3)Gal(b1-4)GlcNAc(b1-3)Gal(b1-4)GlcNAc(b1-3)Gal(b1-4)GlcNAc(b1-2)Man(a1-6)]Man(b1-4)GlcNAc(b1-4)[Fuc(a1-6)]GlcNAc
How it was run: as §1

[5] = target: GlcNAc(b1-3)Gal(b1-4)GlcNAc(b1-3)Gal(b1-4)GlcNAc(b1-3)Gal(b1-4)GlcNAc(b1-2)[GlcNAc(b1-3)Gal(b1-4)GlcNAc(b1-3)Gal(b1-4)GlcNAc(b1-3)Gal(b1-4)GlcNAc(b1-6)]Man(a1-6)[GlcNAc(b1-3)Gal(b1-4)GlcNAc(b1-3)Gal(b1-4)GlcNAc(b1-3)Gal(b1-4)GlcNAc(b1-2)Man(a1-3)]Man(b1-4)GlcNAc(b1-4)[Fuc(a1-6)]GlcNAc
How it was run: as §1

[6] = target: GlcNAc(b1-3)Gal(b1-4)GlcNAc(b1-3)Gal(b1-4)GlcNAc(b1-3)Gal(b1-4)GlcNAc(b1-3)Gal(b1-4)GlcNAc(b1-2)Man(a1-3)[GlcNAc(b1-3)Gal(b1-4)GlcNAc(b1-3)Gal(b1-4)GlcNAc(b1-3)Gal(b1-4)GlcNAc(b1-3)Gal(b1-4)GlcNAc(b1-2)Man(a1-6)]Man(b1-4)GlcNAc(b1-4)GlcNAc
How it was run: as §1

[7] = target: GlcNAc(b1-3)Gal(b1-4)GlcNAc(b1-3)Gal(b1-4)GlcNAc(b1-3)Gal(b1-4)GlcNAc(b1-3)Gal(b1-4)GlcNAc(b1-2)Man(a1-3)[GlcNAc(b1-3)Gal(b1-4)GlcNAc(b1-3)Gal(b1-4)GlcNAc(b1-3)Gal(b1-4)GlcNAc(b1-3)Gal(b1-4)GlcNAc(b1-2)Man(a1-6)]Man(b1-4)GlcNAc(b1-4)[Fuc(a1-6)]GlcNAc
How it was run: as §1

[8] = target: GlcNAc(b1-3)Gal(b1-4)GlcNAc(b1-3)Gal(b1-4)GlcNAc(b1-3)Gal(b1-4)GlcNAc(b1-3)Gal(b1-4)GlcNAc(b1-2)[GlcNAc(b1-3)Gal(b1-4)GlcNAc(b1-3)Gal(b1-4)GlcNAc(b1-3)Gal(b1-4)GlcNAc(b1-3)Gal(b1-4)GlcNAc(b1-6)]Man(a1-6)[GlcNAc(b1-3)Gal(b1-4)GlcNAc(b1-3)Gal(b1-4)GlcNAc(b1-3)Gal(b1-4)GlcNAc(b1-3)Gal(b1-4)GlcNAc(b1-2)Man(a1-3)]Man(b1-4)GlcNAc(b1-4)[Fuc(a1-6)]GlcNAc
How it was run: as §1

[9] = target: GlcNAc(b1-3)Gal(b1-4)GlcNAc(b1-3)Gal(b1-4)GlcNAc(b1-3)GalNAc
How it was run: as §1

[10] = target: GlcNAc(b1-3)Gal(b1-4)GlcNAc(b1-3)GalNAc
How it was run: as §1

[11] = target: GlcNAc(b1-3)Gal(b1-4)GlcNAc(b1-3)[GlcNAc(b1-3)Gal(b1-4)GlcNAc(b1-3)]GalNAc
How it was run: as §1

[12] = target: GlcNAc(b1-3)Gal(b1-4)GlcNAc(b1-6)[Gal(b1-3)]GalNAc
How it was run: as §1

[13] = target: GlcNAc(b1-3)Gal(b1-4)GlcNAc(b1-6)[GlcNAc(b1-3)Gal(b1-3)]GalNAc
How it was run: as §1

[14] = target: GlcNAc(b1-3)Gal(b1-4)GlcNAc(b1-6)[GlcNAc(b1-3)]Gal(b1-4)GlcNAc
How it was run: as §1

GlcNAc(b1-3)GalNAc = target: GlcNAc(b1-3)GalNAc
How it was run: as §1

GlcNAc(b1-3)Man = target: GlcNAc(b1-3)Man
How it was run: as §1

[15] = target: GlcNAc(b1-3)[GlcNAc(b1-4)][GlcNAc(b1-6)]GlcNAc
How it was run: as §1

[16] = target: GlcNAc(b1-3)[GlcNAc(b1-6)]Gal(b1-4)GlcNAc
How it was run: as §1

[17] = target: GlcNAc(b1-3)[GlcNAc(b1-6)]GalNAc
How it was run: as §1

[18] = target: GlcNAc(b1-4)Gal(b1-4)GlcNAc
How it was run: as §1

GlcNAc(b1-4)GlcNAc = target: GlcNAc(b1-4)GlcNAc
How it was run: as §1

[19] = target: GlcNAc(b1-4)GlcNAc(b1-4)GlcNAc
How it was run: as §1

[20] = target: GlcNAc(b1-4)GlcNAc(b1-4)GlcNAc(b1-4)GlcNAc(b1-4)GlcNAc
How it was run: as §1

[21] = target: GlcNAc(b1-4)GlcNAc(b1-4)GlcNAc(b1-4)GlcNAc(b1-4)GlcNAc(b1-4)GlcNAc
How it was run: as §1

[22] = target: GlcNAc(b1-4)[GlcNAc(b1-6)]GalNAc
How it was run: as §1

[23] = target: GlcNAc(b1-6)Gal(b1-4)GlcNAc
How it was run: as §1

GlcNAc(b1-6)GalNAc = target: GlcNAc(b1-6)GalNAc
How it was run: as §1

[24] = target: GlcNAc6S(b1-3)Gal(b1-4)GlcNAc
How it was run: as §1

Kdn(a2-3)Gal(b1-3)GalNAc = target: Kdn(a2-3)Gal(b1-3)GalNAc
How it was run: as §1

Kdn(a2-3)Gal(b1-3)GlcNAc = target: Kdn(a2-3)Gal(b1-3)GlcNAc
How it was run: as §1

Kdn(a2-3)Gal(b1-4)Glc = target: Kdn(a2-3)Gal(b1-4)Glc
How it was run: as §1

Kdn(a2-3)Gal(b1-4)GlcNAc = target: Kdn(a2-3)Gal(b1-4)GlcNAc
How it was run: as §1

[25] = target: Kdn(a2-3)Gal(b1-4)[Fuc(a1-3)]GlcNAc
How it was run: as §1

Kdn(a2-6)Gal(b1-4)GlcNAc = target: Kdn(a2-6)Gal(b1-4)GlcNAc
How it was run: as §1

[26] = target: Man(a1-2)Man(a1-2)Man(a1-3)Man
How it was run: as §1

[27] = target: Man(a1-2)Man(a1-2)Man(a1-6)[Man(a1-3)]Man
How it was run: as §1

Man(a1-2)Man(a1-3)Man = target: Man(a1-2)Man(a1-3)Man
How it was run: as §1

[28] = target: Man(a1-2)Man(a1-3)[Man(a1-2)Man(a1-6)]Man
How it was run: as §1

B1: Nc3LysM-2 (protein)
chain: AHVLQARQSVSCDFATAANTGDTCASFAAAWGITEAAFAKLNPGVSCPGNLIAGSEYCVIGTVSTGAPTTTKAATTSTTPPTTTTTTKATTLSTSTTSVSPTGPSPQMPSITSTCNKFYQVQSGDGCWSIEQAQGVSASDFMAWNKAVDAQCDNLWLGYYVCVGVKGGSSPPPTTTTKPASSSAPTPQMPNTVSNCKKFHKVVSGDGCWAIEQAAGISASDFAKWNPYVDAACDNLWLGYYVCIGV
Q: With B1 as the binder, how does the “glycan array binding signal (z-score)” value [1] read?
A: Its value is 3.4.

Q: What about the “glycan array binding signal (z-score)” value [2] of the same binder?
A: Its value is 0.806.

Q: What about the “glycan array binding signal (z-score)” value [3] of the same binder?
A: The value was -0.959.

Q: What about the “glycan array binding signal (z-score)” value [4] of the same binder?
A: Its value is -0.33.

Q: And the “glycan array binding signal (z-score)” value [5]?
A: Its value is 0.309.

Q: What about the “glycan array binding signal (z-score)” value [6] of the same binder?
A: The value was -0.307.

Q: What about the “glycan array binding signal (z-score)” value [7] of the same binder?
A: The value was 1.71.

Q: And the “glycan array binding signal (z-score)” value [8]?
A: The value was 0.213.

Q: What about the “glycan array binding signal (z-score)” value [9] of the same binder?
A: The value was 1.32.

Q: And the “glycan array binding signal (z-score)” value [10]?
A: Its value is -0.769.

Q: What about the “glycan array binding signal (z-score)” value [11] of the same binder?
A: Its value is -0.1.

Q: What about the “glycan array binding signal (z-score)” value [12] of the same binder?
A: The value was 0.025.

Q: What about the “glycan array binding signal (z-score)” value [13] of the same binder?
A: Its value is -1.18.

Q: What about the “glycan array binding signal (z-score)” value [14] of the same binder?
A: Its value is -0.086.

Q: What about the “glycan array binding signal (z-score)” value (GlcNAc(b1-3)GalNAc) of the same binder?
A: The value was -0.615.

Q: And the “glycan array binding signal (z-score)” value (GlcNAc(b1-3)Man)?
A: The value was -2.18.

Q: What about the “glycan array binding signal (z-score)” value [15] of the same binder?
A: The value was -1.77.

Q: What about the “glycan array binding signal (z-score)” value [16] of the same binder?
A: Its value is -0.242.

Q: What about the “glycan array binding signal (z-score)” value [17] of the same binder?
A: Its value is 1.23.

Q: And the “glycan array binding signal (z-score)” value [18]?
A: The value was -1.05.

Q: And the “glycan array binding signal (z-score)” value (GlcNAc(b1-4)GlcNAc)?
A: The value was 0.212.

Q: And the “glycan array binding signal (z-score)” value [19]?
A: The value was 0.414.

Q: And the “glycan array binding signal (z-score)” value [20]?
A: Its value is 3.61.

Q: And the “glycan array binding signal (z-score)” value [21]?
A: Its value is 1.01.

Q: And the “glycan array binding signal (z-score)” value [22]?
A: Its value is 0.138.

Q: What about the “glycan array binding signal (z-score)” value [23] of the same binder?
A: Its value is -0.473.

Q: And the “glycan array binding signal (z-score)” value (GlcNAc(b1-6)GalNAc)?
A: The value was -0.378.

Q: What about the “glycan array binding signal (z-score)” value [24] of the same binder?
A: The value was -2.08.

Q: And the “glycan array binding signal (z-score)” value (Kdn(a2-3)Gal(b1-3)GalNAc)?
A: The value was 0.492.

Q: And the “glycan array binding signal (z-score)” value (Kdn(a2-3)Gal(b1-3)GlcNAc)?
A: The value was -0.45.

Q: What about the “glycan array binding signal (z-score)” value (Kdn(a2-3)Gal(b1-4)Glc) of the same binder?
A: The value was 0.699.

Q: And the “glycan array binding signal (z-score)” value (Kdn(a2-3)Gal(b1-4)GlcNAc)?
A: The value was 1.91.

Q: And the “glycan array binding signal (z-score)” value [25]?
A: Its value is -0.751.

Q: And the “glycan array binding signal (z-score)” value (Kdn(a2-6)Gal(b1-4)GlcNAc)?
A: Its value is 0.173.

Q: What about the “glycan array binding signal (z-score)” value [26] of the same binder?
A: Its value is 0.951.

Q: What about the “glycan array binding signal (z-score)” value [27] of the same binder?
A: The value was 1.14.

Q: What about the “glycan array binding signal (z-score)” value (Man(a1-2)Man(a1-3)Man) of the same binder?
A: The value was 0.233.

Q: And the “glycan array binding signal (z-score)” value [28]?
A: The value was -0.882.
